According to patent US11672846B2, “Soluble bacterial and fungal proteins and methods and uses thereof in inhibiting and dispersing biofilm” (priority 2014, dated 2023):
Some results were stated once for a whole list of compounds, not compound by compound.

Columns and labels:
[1] = purified protein
A. fumigatus = assay: Antifungal potentiation, XTT metabolic assay; type: cell-based; settings: posaconazole, amphotericin B and caspofungin; 0.5 μM hydrolase

| Molecule | concentration to which the protein could be concentrated [1] | reduction in the minimal inhibitory concentration of antifungals (A. fumigatus) |
| --- | --- | --- |
| BpsB27-701: full-length BpsB residues 27-701, B. bronchiseptica RB50, SEQ ID NO: 18 (protein, listed as Bordetella bronchiseptica) YKVDMLPPPDPDDGLTFRVLCMHDVRDNLRASFADMPDQFAIETRTLTDLFEWIRVKGFNPISMQQIIDSRAGVRPLPPRPILLTFDDGYASTYTKVFPLLKKFNYPAVVAVVTSWTDAPAGTKIRLSPKIEVPHDFFMTWAQLREMAQSGLVELASHSHNLHRGVLANPQGNEQPAASSRQYLPASGRYENDAEYRARVRQDLKTSADLIREHTGVTIRSIVWPYGAHNRDTDQVAAEVGLNIGLTLQPGPNTPDVALTQIRRSLVDYEVNVATVARAMREPVSYHGQVRPIERIVQVDLDYIYDPDPEQQNRNLGQLIDRMKDLAPSAVYLQAFADPKGDGDITEVYFPNRHLPMRADLFNRVAWQLKTRAGVMVYAWLPVLTFSVPPGNPAYGKVVQSTTRKPGERGLGSPTRLSPFHPDAHRVISEIYEDLAKAAHFDGLLFHDDAVLDDTEDSSPEALATYQGWGLPPDIAAIRADPKLAQQWSKGKIRYLIDFTMHLRHIVSGYQNDRDMVVARNLYAQPVLDPVSEAWYGQSLPEFLKSYDFVALMAMPNMEGAARPEQWMRQLVAAVARQKGLDRTIFELQARDWRVGKPIDTEILRRQMVQLRSLGAINYGYYPDDFIANHPDAEALRDVMSLKSTLEKRRLTKAQELSRQTTLYGSASQAEPTQR | 8000 to 10000 µg/mL |  |
| BpsB318-670: BpsB C-terminal hydrolase domain residues 318-670, SEQ ID NO: 19 (protein, listed as Bordetella bronchiseptica) PIERIVQVDLDYIYDPDPEQQNRNLGQLIDRMKDLAPSAVYLQAFADPKGDGDITEVYFPNRHLPMRADLFNRVAWQLKTRAGVMVYAWLPVLTFSVPPGNPAYGKVVQSTTRKPGERGLGSPTRLSPFHPDAHRVISEIYEDLAKAAHFDGLLFHDDAVLDDTEDSSPEALATYQGWGLPPDIAAIRADPKLAQQWSKGKIRYLIDFTMHLRHIVSGYQNDRDMVVARNLYAQPVLDPVSEAWYGQSLPEFLKSYDFVALMAMPNMEGAARPEQWMRQLVAAVARQKGLDRTIFELQARDWRVGKPIDTEILRRQMVQLRSLGAINYGYYPDDFIANHPDAEALRDVMSLKS | 8000 to 10000 µg/mL |  |
| Sph352-298: soluble Sph3 residues 52-298, Aspergillus fumigatus Af293, SEQ ID NO: 20 (protein, listed as Aspergillus fumigatus) SKVFVPLYVYPAPGAWTPLEDVISKHPDVNFTVVINPGSGPGPNALPDGNYTREIPKLASYENVRLLGYVATTYAKRNISLVRRDIETYAAWPTNSSNPALAVRGIFFDETPQQYDEDALAYLQELTDVVKNTPGLGPDHYVVHNPGAIPDSRYLSTADSTVVFEATYDTFQERHGAKLFEAIPDSNRSQLCAVIHSVPESVEGSALRSLVKQVRKVADEIFITHLDTDYYASFGRQWPEFVDLMGK |  | ≥ 50% |
| Sph3AC(54-304): Sph3 ortholog residues 54-304, Aspergillus clavatus NRRL 1, SEQ ID NO: 22 (protein, listed as Aspergillus clavatus) MGPKSKVFVPLYVYPAPGAWDPLEDVISKHPDVNFTVVINPGSGPGPEALPDGNYTREIPKLASYENVRLLGYVATTYAKRNISEVRRDIETYAAWPTQSSNANLAVRGIFFDETPQQYDADILAYLRELTDVVKGTSGLGPDHYVVHNPGAIPDSRYLSTADSTVVFEATYATFQERHGAELFDTIPDSHRDQLCAVIHSVPTSVEGSDLRGLVKQVRQVADEIFITHLETDYYAGFGGQWSEFVDLMAS |  | ≥ 50% |
| Sph3AN(43-299): Sph3 ortholog residues 43-299, Aspergillus nidulans FGSC A4, SEQ ID NO: 23 (protein, Aspergillus nidulans) RRKNNNMGPKAKVFVPLYVYPAPGAWDPLVNVITAHPDVNFTVVVNPGSGPGPNPLPDRNYTQEIPRLTAHDNVRVLGYVATTYAKRNISSVRNDIETYAAWPTISANPKLAVRGIFFDETPQQYNASDLAYLEELTSVVKNTPGLGPDHFVFHNPGVVPDPRYLSTADSTVVFEATYDTFQDRDGARLFETIPNSNRSQLCAVVHSVPDSVEGSELRKFVKQARRVADEIFVTHLSTNYYASFGDKWDDFVRLMAQ |  | ≥ 50% |
| PelA47-303: soluble PelA hydrolase domain, residues 47-303, P. aeruginosa PAO1, SEQ ID NO: 12 (protein, listed as Pseudomonas aeruginosa) GGPSSVAFWYAERPPLAELSQFDWVVLEAAHLKPADVGYLKEQGSTPFAYLSVGEFDGDAAAIADSGLARGKSAVRNQAWNSQVMDLAAPSWRAHLLKRAAELRKQGYAGLFLDTLDSFQLQAEERREGQRRALASFLAQLHRQEPGLKLFFNRGFEVLPELPGVASAVAVESIHAGWDAAAGQYREVPQDDRDWLKGHLDALRAQGMPIVAIDYLPPERRDEARALAARLRSEGYVPFVSTPALDYLGVSDVEVQP |  | ≥ 50% |
